Laboratory results published in patent publication US20210238279A1 (Johns Hopkins, published 2021).
No constants are given. Whether binding was seen depends on the method and setting. Some binding calls cover weakened binding; strength is not graded here. For some of these results: Sequences can lack the tags named with a protein.

Legend:
[1] = target: T1, endogenous human ZnT8 in EndoC-βH cells (human) (UniProt Q8IWU4); assay: immunoblot of EndoC-βH lysate
T1 sequence (looked up): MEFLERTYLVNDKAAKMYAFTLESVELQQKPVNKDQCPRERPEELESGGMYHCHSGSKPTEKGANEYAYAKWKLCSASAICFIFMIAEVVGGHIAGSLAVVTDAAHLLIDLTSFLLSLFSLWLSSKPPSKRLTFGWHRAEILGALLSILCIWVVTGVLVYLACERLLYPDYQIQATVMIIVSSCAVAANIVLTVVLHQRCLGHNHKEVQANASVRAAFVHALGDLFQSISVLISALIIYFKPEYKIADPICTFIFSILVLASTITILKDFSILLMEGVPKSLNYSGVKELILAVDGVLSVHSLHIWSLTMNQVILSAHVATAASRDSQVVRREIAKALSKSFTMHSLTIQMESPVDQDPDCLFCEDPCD

[2] = target: T2, human ZnT8 over-expressed in HEK293 cells (human) (UniProt Q8IWU4); assay: discussion of the flow cytometry result
T2 sequence (looked up): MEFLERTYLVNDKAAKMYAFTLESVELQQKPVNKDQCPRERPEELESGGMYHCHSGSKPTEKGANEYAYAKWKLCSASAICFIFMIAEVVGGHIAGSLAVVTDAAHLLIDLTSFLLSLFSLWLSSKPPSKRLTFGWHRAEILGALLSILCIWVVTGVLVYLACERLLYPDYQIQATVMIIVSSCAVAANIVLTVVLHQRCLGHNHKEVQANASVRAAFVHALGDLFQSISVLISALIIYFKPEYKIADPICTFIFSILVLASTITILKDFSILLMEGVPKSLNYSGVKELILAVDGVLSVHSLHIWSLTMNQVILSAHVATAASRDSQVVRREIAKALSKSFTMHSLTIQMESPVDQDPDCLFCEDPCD

[3] = target: T1, endogenous human ZnT8 in EndoC-βH cells (human); assay: immunoblot of EndoC-betaH cell lysate
[4] = target: T3, human ZnT8 with C-terminal FLAG tag (human) (UniProt Q8IWU4); assay: immunoblot of HEK293 lysates over-expressing FLAG-tagged ZnT homologs
T3 sequence (looked up): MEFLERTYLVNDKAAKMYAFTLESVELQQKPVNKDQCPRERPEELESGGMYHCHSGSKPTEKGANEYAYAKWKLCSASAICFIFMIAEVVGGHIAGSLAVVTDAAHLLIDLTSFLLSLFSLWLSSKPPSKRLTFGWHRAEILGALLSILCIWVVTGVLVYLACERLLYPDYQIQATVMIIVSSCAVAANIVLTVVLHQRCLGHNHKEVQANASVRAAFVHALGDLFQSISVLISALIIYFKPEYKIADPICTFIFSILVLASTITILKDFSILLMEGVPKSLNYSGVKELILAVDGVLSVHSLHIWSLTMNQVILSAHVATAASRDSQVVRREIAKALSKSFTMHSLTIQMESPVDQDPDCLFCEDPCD

[5] = target: T2, human ZnT8 over-expressed in HEK293 cells (human); assay: immunofluorescence, confocal microscopy of fixed and permeabilized HEK293 cells
[6] = target: T2, human ZnT8 over-expressed in HEK293 cells (human); assay: flow cytometry of fixed and permeabilized HEK293 cells, serial dilutions of the antibody
[7] = target: T2, human ZnT8 over-expressed in HEK293 cells (human); assay: flow cytometry of fixed and permeabilized HEK293 cells, mean fluorescence against antibody concentration
[8] = target: T2, human ZnT8 over-expressed in HEK293 cells (human); assay: confocal immunofluorescence on fixed, permeabilized HEK293 cells stably expressing human ZnT8; no staining of parental cells
[9] = target: T2, human ZnT8 over-expressed in HEK293 cells (human); assay: HTRF, terbium cryptate-mAb20 and d2-mAb39 on lysates of HEK293 cells over-expressing human ZnT8; linear response up to 50 ng/mL
[10] = target: T2, human ZnT8 over-expressed in HEK293 cells (human); assay: HTRF (FRET) between terbium-cryptate mAb20 and d2-labelled mAb39 bound to the same ZnT8, dilutions of cell lysate; the ZnT8 concentration is varied

Measured: binding

B1: mAb20 (antibody, V domains shown)
VH: QIQLVQSGPELKKPGETVKISCKASGYIFTNYPMHWVKQAPGKGLKWMGWINTYSGVPTHADDFKGRFAFSLETSANSAFLQINNLKNEDTATYFCTRSRITPTGGYAMDYWGQGTSVTVSS
VL: DVVMTQTPLSLPVSLGDQASISCRSSQSLVHSNGNTYLHWYLQKPGQSPNLLISKVSNRFSGVPERFSGSGSGTDFTLKISRVEAEDLGVYFCSQNTHVPWTFGGGTKLEIKR
notes: Mouse hybridoma mAb purified on protein A/G; In some assays it was labelled with Alexa Fluor 488 or terbium cryptate; also called monoclonal antibody mAb20; anti-ZnT8 mAb20
binds: all assays above
